Data: publication PMC7555428
Results are given in words; binding and its absence hold for the method and conditions named. Binding seen in cells or lysates may run through a third protein. Some binding calls cover weakened binding; strength is not graded here.

Amino acid sequences for entries named in this document (tags omitted).
UniProt Q9Z330: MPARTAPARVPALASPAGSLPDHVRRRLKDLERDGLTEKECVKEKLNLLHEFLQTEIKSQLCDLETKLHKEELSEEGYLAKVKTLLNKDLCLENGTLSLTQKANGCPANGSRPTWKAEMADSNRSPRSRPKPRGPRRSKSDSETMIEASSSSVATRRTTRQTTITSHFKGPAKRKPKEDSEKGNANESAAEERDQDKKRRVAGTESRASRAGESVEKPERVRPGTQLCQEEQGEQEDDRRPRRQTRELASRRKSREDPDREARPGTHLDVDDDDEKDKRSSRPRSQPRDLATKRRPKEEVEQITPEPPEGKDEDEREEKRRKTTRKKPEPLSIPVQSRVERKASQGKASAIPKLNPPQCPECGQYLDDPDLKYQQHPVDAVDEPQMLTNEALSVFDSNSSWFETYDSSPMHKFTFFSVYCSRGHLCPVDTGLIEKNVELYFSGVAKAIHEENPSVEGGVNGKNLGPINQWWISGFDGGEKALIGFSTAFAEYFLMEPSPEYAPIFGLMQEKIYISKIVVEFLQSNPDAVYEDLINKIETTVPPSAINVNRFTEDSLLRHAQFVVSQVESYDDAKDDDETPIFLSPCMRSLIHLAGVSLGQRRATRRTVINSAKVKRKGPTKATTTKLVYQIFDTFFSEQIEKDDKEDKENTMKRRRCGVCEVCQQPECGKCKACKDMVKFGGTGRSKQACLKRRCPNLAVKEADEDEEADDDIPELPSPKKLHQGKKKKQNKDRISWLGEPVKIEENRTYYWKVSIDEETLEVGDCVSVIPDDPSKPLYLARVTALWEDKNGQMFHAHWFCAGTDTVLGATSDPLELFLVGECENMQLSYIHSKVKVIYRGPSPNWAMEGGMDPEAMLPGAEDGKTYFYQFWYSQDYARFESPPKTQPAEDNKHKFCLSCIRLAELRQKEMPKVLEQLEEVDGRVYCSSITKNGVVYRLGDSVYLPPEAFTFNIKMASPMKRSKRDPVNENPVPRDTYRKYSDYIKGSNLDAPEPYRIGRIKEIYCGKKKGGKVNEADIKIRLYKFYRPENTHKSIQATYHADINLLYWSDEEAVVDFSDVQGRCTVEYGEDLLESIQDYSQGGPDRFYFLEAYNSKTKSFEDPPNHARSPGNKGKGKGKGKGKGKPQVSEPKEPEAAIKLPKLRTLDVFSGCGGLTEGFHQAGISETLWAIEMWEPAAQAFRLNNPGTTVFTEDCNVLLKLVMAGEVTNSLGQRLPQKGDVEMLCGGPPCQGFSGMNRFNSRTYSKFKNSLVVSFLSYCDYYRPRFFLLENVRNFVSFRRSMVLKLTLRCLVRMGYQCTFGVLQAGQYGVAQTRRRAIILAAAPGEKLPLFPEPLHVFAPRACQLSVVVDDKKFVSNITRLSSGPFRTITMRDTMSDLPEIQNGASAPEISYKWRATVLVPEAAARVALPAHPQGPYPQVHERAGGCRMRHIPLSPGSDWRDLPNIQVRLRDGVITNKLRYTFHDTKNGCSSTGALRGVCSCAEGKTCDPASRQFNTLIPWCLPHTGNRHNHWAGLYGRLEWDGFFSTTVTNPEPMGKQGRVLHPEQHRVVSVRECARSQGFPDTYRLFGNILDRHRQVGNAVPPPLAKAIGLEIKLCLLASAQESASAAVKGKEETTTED

T1: NAD-dependent deacetylase sirtuin-1 (rat (endogenous in INS-1E))
T1 sequence: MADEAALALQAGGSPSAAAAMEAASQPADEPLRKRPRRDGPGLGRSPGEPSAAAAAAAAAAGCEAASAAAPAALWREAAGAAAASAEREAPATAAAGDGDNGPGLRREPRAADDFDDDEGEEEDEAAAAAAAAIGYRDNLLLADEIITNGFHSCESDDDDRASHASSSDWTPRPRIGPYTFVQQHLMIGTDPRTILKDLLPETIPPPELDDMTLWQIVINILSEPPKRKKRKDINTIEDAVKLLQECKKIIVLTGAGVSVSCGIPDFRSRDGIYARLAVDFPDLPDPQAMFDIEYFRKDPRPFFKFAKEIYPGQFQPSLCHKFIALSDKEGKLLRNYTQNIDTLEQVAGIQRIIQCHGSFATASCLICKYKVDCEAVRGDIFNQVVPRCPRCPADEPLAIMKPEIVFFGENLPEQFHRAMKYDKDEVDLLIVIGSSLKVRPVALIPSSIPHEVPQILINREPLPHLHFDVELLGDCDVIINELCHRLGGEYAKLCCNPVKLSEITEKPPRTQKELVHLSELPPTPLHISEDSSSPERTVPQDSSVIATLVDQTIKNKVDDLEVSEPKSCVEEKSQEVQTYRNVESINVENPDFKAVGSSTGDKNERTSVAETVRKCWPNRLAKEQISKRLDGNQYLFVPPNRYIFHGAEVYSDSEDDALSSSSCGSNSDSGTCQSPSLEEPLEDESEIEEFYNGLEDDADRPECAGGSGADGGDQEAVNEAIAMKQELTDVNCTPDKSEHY


Key:
[1] = target: T1, NAD-dependent deacetylase sirtuin-1 (rat (endogenous in INS-1E)); assay: co-IP; whole INS-1E cell lysates (500 ug protein; 20 mM Tris pH 8.0, 75 mM NaCl, 15 mM MgCl2, 1 mM EDTA, 0.5% Nonidet P-40, 10% glycerol) incubated overnight at 4 °C with protein A/G PLUS-agarose beads and 1 ug of SIRT1 or DNMT1 antibody or IgG alone; six washes; Western blot; for the anti-DNMT1 precipitates cells were untreated or treated with the SCD1 inhibitor and palmitate (16:0)
[2] = target: DNA methyltransferase 1 (rat (endogenous in INS-1E)) (UniProt Q9Z330); assay: as above

Molecule | binding [1] | binding [2]
DNA methyltransferase 1 (from UniProt Q9Z330 1-1622) | binds | –
NAD-dependent deacetylase sirtuin-1 (protein, UniProt A0A0G2JZ79 1-741) MADEAALALQAGGSPSAAAAMEAASQPADEPLRKRPRRDGPGLGRSPGEPSAAAAAAAAAAGCEAASAAAPAALWREAAGAAAASAEREAPATAAAGDGDNGPGLRREPRAADDFDDDEGEEEDEAAAAAAAAIGYRDNLLLADEIITNGFHSCESDDDDRASHASSSDWTPRPRIGPYTFVQQHLMIGTDPRTILKDLLPETIPPPELDDMTLWQIVINILSEPPKRKKRKDINTIEDAVKLLQECKKIIVLTGAGVSVSCGIPDFRSRDGIYARLAVDFPDLPDPQAMFDIEYFRKDPRPFFKFAKEIYPGQFQPSLCHKFIALSDKEGKLLRNYTQNIDTLEQVAGIQRIIQCHGSFATASCLICKYKVDCEAVRGDIFNQVVPRCPRCPADEPLAIMKPEIVFFGENLPEQFHRAMKYDKDEVDLLIVIGSSLKVRPVALIPSSIPHEVPQILINREPLPHLHFDVELLGDCDVIINELCHRLGGEYAKLCCNPVKLSEITEKPPRTQKELVHLSELPPTPLHISEDSSSPERTVPQDSSVIATLVDQTIKNKVDDLEVSEPKSCVEEKSQEVQTYRNVESINVENPDFKAVGSSTGDKNERTSVAETVRKCWPNRLAKEQISKRLDGNQYLFVPPNRYIFHGAEVYSDSEDDALSSSSCGSNSDSGTCQSPSLEEPLEDESEIEEFYNGLEDDADRPECAGGSGADGGDQEAVNEAIAMKQELTDVNCTPDKSEHY | – | binds
